Experimental data taken from article doi:10.1101/345959.
Numbering of substitutions follows the chain as printed. Results are given in words; binding and its absence hold for the method and conditions named. Binding seen in cells or lysates may run through a third protein. Binding can be weak; no strength is given. Tags and fused reporters may be left off the sequences shown.

Amino acid sequences for entries named in this document (tags omitted). A change or cut given only in a name is not applied to a line headed by its entry.
UniProt Q9D8H7: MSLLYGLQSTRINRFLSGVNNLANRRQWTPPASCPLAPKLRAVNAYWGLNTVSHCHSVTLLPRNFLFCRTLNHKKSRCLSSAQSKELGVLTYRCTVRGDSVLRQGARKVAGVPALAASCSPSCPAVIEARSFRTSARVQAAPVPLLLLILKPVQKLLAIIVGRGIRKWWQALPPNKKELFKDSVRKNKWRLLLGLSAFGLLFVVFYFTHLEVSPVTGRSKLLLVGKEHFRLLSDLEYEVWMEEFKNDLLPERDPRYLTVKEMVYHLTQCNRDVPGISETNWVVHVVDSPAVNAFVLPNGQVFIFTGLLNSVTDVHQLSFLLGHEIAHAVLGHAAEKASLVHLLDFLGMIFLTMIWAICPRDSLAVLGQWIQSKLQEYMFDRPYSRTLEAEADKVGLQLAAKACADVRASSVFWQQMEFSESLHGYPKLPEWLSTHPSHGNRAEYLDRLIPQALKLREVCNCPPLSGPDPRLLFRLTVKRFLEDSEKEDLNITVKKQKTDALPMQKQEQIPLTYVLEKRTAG

Assays:
[1] = biological target: T1, Mic19^ID^33-34VN-Flag (human) (UniProt Q9NX63); test: co-IP
T1 sequence: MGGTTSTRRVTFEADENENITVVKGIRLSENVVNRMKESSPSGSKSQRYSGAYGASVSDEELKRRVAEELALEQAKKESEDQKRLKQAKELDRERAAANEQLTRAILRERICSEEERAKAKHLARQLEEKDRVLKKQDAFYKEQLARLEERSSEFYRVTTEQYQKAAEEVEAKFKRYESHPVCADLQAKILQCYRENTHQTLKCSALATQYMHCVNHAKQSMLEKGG

Mic19-Flag (human) = biological target: T2, Mic19-Flag (human) (UniProt Q9NX63); test: co-IP
T2 sequence: T1 sequence with V33I, N34D

## OMA1^E324Q-Myc (from UniProt Q9D8H7) (enzyme)
[1]
  binding: binds
Mic19-Flag (human)
  binding: binds
